Patent US11135193B2, “Composition containing monoacetyldiacylglycerol compound as active ingredient for preventing or treating asthma” (Enzychem Lifesciences Corporation, priority 2013, dated 2021)
For at least one compound, name, drawing or mass did not settle the structure.

Experiments:
Assay type in all cases: in vivo, mouse
[1] = system: ovalbumin-induced asthma Balb/c mice; experiment: Airway hyperresponsiveness (Pehn, plethysmography) in ovalbumin-induced asthma model; conditions: montelukast 30 mg/kg; EC-18 30 mg/kg and 60 mg/kg
Procedure: (§1) 6-week-old female SPF (specific pathogen-free) Balb/c mice (average weight: 20 g) were purchased from Samtako (Korea). The animals were sufficiently fed with solid feed (antibiotic-free, Samyang Feed Co.) and water until the start point of the experiment, and acclimated at a temperature of 22±2° C., a humidity of 55±15%, and a 12-hr light/12-hr dark cycle for 1 week, and then used in experiments. After 1 week of the acclimation period as described above, the mice were sensitized by intraperitoneal administration of a suspension of 2 mg of aluminum oxide (A8222, Sigma-Aldrich, MO, USA) and 20 μg of ovalbumin (A5503, Sigma-Aldrich) in 200 μl of phosphate buffered saline at two-week intervals. […] At 24 hours after the last ovalbumin challenge, the airway hyperresponsiveness of the mice was measured, and after 48 hours, the mice were anesthetized by intraperitoneal administration of Pentobarbital (50 mg/kg, Entobal, Hanil, Korea). […]
To measure airway hyperresponsiveness that is one of the major features of asthma, one chamber plethysmography (All Medicus, Korea) was used. The degree of airway resistance was evaluated by measuring enhanced pause (Pehn). For measurement of Pehn, the basis value was measured in a normal breathing state, and then PBS was inhaled for 3 minutes using an ultrasonic nebulizer, after which the Pehn value was measured for 3 minutes.

[2] = system: interleukins (IL-4, IL-5 and IL-13); experiment: Th2 cytokines in bronchoalveolar lavage fluid (ELISA), ovalbumin-induced asthma model; conditions: BALF
Procedure: as §1
The production of interleukins (IL-4, IL-5 and IL-13) in the bronchoalveolar lavage fluid isolated from each mouse was measured using a commercially available enzyme-linked immunosorbent assay (ELISA) kit (R&D System, USA). The analysis of each cytokine was performed according to the manufacturer's instruction, and the absorbance at 450 nm was measured using an ELISA reader (Molecular Devices, USA).

[3] = system: serum IgE and ovalbumin-specific IgE; experiment: Serum IgE and ovalbumin-specific IgE (ELISA), ovalbumin-induced asthma model
Procedure: 6-week-old female SPF (specific pathogen-free) Balb/c mice (average weight: 20 g) were purchased from Samtako (Korea). The animals were sufficiently fed with solid feed (antibiotic-free, Samyang Feed Co.) and water until the start point of the experiment, and acclimated at a temperature of 22±2° C., a humidity of 55±15%, and a 12-hr light/12-hr dark cycle for 1 week, and then used in experiments. After 1 week of the acclimation period as described above, the mice were sensitized by intraperitoneal administration of a suspension of 2 mg of aluminum oxide (A8222, Sigma-Aldrich, MO, USA) and 20 μg of ovalbumin (A5503, Sigma-Aldrich) in 200 μl of phosphate buffered saline at two-week intervals. During a period from day 21 to day 23 after the first intraperitoneal administration of ovalbumin, 1% ovalbumin was inhaled into the mice for 30 minutes using an ultrasonic nebulizer (NE-U12, Omron Corp., Japan). At 24 hours after the last ovalbumin challenge, the airway hyperresponsiveness of the mice was measured, and after 48 hours, the mice were anesthetized by intraperitoneal administration of Pentobarbital (50 mg/kg, Entobal, Hanil, Korea). […]
The blood collected through the saphenous vein was incubated at room temperature for 30 minutes, and then centrifuged (3000 rpm, 15 min) to obtain serum. […] IgE was measured using commercially available IgE (Biolegend Ins., USA). […]

CC(C)(O)c1ccccc1CC[C@@H](SCC1(CC(=O)O)CC1)c1cccc(/C=C/c2ccc3ccc(Cl)cc3n2)c1 [Mon, montelukast, reference compound]
significantly decreased: airway hyperresponsiveness / Pehn value compared to asthma-induced group [1] | secretion of IL-4 compared to asthma-induced group [2] | serum IgE compared to asthma-induced group [3]
